In patent US8501992B2, “Hydroxyphenyl sulfonamides as antiapoptotic bcl inhibitors” (Bristol-Myers Squibb Company, priority 2008, dated 2013):
Some results were stated once for a whole list of compounds, not compound by compound.

What follows are compounds tested against T1, Bcl-b (Homo sapiens, UniProt Q9HD36) (assay: Bclb/Bim fluorescence polarization assay (FPA)). Conditions: BIM BH3 peptide 5 nM, Bcl-b 40 nM, Ki calculated from FPA data.
T1 construct: without their C-terminal transmembrane domain; GST; made in house
T1 sequence (Q9HD36 1-182 limits assumed): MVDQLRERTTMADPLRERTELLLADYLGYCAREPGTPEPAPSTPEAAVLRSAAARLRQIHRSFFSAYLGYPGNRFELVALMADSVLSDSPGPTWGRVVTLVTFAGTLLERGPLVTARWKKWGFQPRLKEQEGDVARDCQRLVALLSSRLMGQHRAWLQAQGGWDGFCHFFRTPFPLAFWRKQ
Assay type: binding

Ki, ≤ 10 µM:
O=C(NCc1cc(CN(Cc2ccc(F)cc2)S(=O)(=O)c2cc(Cl)cc(Cl)c2O)cc(Oc2ccc(F)cc2)c1)c1cccnc1 [Example 88, N-(3-((3,5-dichloro-N-(4-fluorobenzyl)-2-hydroxyphenyl-sulfonamido)methyl)-5-(4-fluorophenoxy)benzyl) nicotinamide]
O=C(NCc1cc(CN(Cc2ccc(F)cc2)S(=O)(=O)c2cc(Cl)cc(Cl)c2O)cc(Oc2ccc(F)cc2)c1)c1ccc[n+]([O-])c1 [Example 89, 3-(3-((3,5-dichloro-N-(4-fluorobenzyl)-2-hydroxyphenyl-sulfonamido)methyl)-5-(4-fluorophenoxy)benzylcarbamoyl)pyridine 1-oxide]
O=S(=O)(c1cc(Cl)cc(Cl)c1)N(Cc1ccc(F)cc1)Cc1cc(Cl)cc(CN(Cc2ccc(F)cc2)S(=O)(=O)c2cc(Cl)cc(Cl)c2O)c1 [Example 90, 3,5-dichloro-N-(3-chloro-5-((3,5-dichloro-N-(4-fluorobenzyl)phenylsulfon-amido)methyl)benzyl)-N-(4-fluorobenzyl)-2-hydroxybenzenesulfonamide]
O=S(=O)(c1cc(Cl)cc(Cl)c1)N(Cc1ccc(F)cc1)Cc1cccc(CN(Cc2ccc(F)cc2)S(=O)(=O)c2cc(Cl)cc(Cl)c2O)n1 [Example 91, 3,5-dichloro-N-((6-((3,5-dichloro-N-(4-fluorobenzyl)phenylsulfonamido)methyl)pyridin-2-yl)methyl)-N-(4-fluorobenzyl)-2-hydroxybenzenesulfonamide]
O=S(=O)(c1cc(Cl)cc(Cl)c1)N(Cc1ccc(F)cc1)Cc1cccc(CN(Cc2ccc(F)cc2)S(=O)(=O)c2cc(Cl)cc(Cl)c2O)[n+]1[O-] [Example 92, 2-((3,5-dichloro-N-(4-fluorobenzyl)-2-hydroxyphenylsulfonamido)methyl)-6-((3,5-dichloro-N-(4-fluorobenzyl)phenylsulfonamido)methyl)pyridine 1-oxide]
CC(C)CN(Cc1cccc(CN(Cc2ccc(-c3ccc(F)cc3)cc2)S(=O)(=O)c2cc(Cl)cc(Cl)c2O)c1)S(=O)(=O)c1cc(Cl)cc(Cl)c1 [Example 93, 3,5-dichloro-N-(3-((3,5-dichloro-N-isobutylphenyl-sulfonamido)methyl)benzyl)-N-((4′-fluorobiphenyl-4-yl)methyl)-2-hydroxybenzenesulfonamide]
O=S(=O)(c1cccc(CN(Cc2ccc(F)cc2)S(=O)(=O)c2cc(Cl)cc(Cl)c2O)c1)N(Cc1ccc(F)cc1)Cc1cc(Cl)cc(Cl)c1 [Example 94, 3,5-Dichloro-N-(3-(N-(3,5-dichlorobenzyl)-N-(4-fluorobenzyl)sulfamoyl)benzyl)-N-(4-fluorobenzyl)-2-hydroxybenzenesulfonamide]
O=C(c1cccc(CN(Cc2ccc(F)cc2)S(=O)(=O)c2cc(Cl)cc(Cl)c2O)c1)N(Cc1ccc(F)cc1)Cc1cc(Cl)cc(Cl)c1 [Example 95, 3-((3,5-Dichloro-N-(4-fluorobenzyl)-2-hydroxyphenylsulfonamido)methyl)-N-(3,5-dichlorobenzyl)-N-(4-fluorobenzyl)benzamide]
O=S(=O)(c1cc(Cl)cc(Cl)c1O)N(Cc1ccc(F)cc1)Cc1ccc(CN(Cc2ccc(F)cc2)S(=O)(=O)c2cc(Cl)cc(Cl)c2O)cc1 [Example 96, N-(4-Fluoro-benzyl)-N-(4-{[(4-fluoro-benzyl)-(3,5-dichloro-2-hydroxybenzene)sulfonyl-amino]-methyl}-benzyl)-3,5-dichloro-2-hydroxybenzenesulfonamide]
CC(C)CN(Cc1ccc(CN(CC(C)C)S(=O)(=O)c2cc(Cl)cc(Cl)c2O)cc1)S(=O)(=O)c1cc(Cl)cc(Cl)c1O [Example 97, N-Isobutyl-N-{4-[(isobutyl-(3,5-dichloro-2-hydroxybenzene)sulfonyl-amino)-methyl]-benzyl}-(3,5-dichloro-2-hydroxybenzene)sulfonamide]
